Measured values from PMC3781157.
These are yes or no findings as the source states them, for the method shown. Binding can be weak; no strength is given.

Key:
GST-RhoAΔC = assay: pull-down; GST-GTPase as bait, loaded with GDP or GppNHp overnight at 4°C; purified HMHA1 without GST tag as prey; bound HMHA1 detected by Western blot with anti-HMHA1; both purified
GST-Rac1ΔC = assay: as above

binding (GST-RhoAΔC): binds
binding (GST-Rac1ΔC): binds
B1: HMHA1 full-length (protein, UniProt Q92619 1-1136)
chain: MFSRKKRELMKTPSISKKNRAGSPSPQPSGELPRKDGADAVFPGPSLEPPAGSSGVKATGTLKRPTSLSRHASAAGFPLSGAASWTLGRSHRSPLTAASPGELPTEGAGPDVVEDISHLLADVARFAEGLEKLKECVLRDDLLEARRPRAHECLGEALRVMHQIISKYPLLNTVETLTAAGTLIAKVKAFHYESNNDLEKQEFEKALETIAVAFSSTVSEFLMGEVDSSTLLAVPPGDSSQSMESLYGPGSEGTPPSLEDCDAGCLPAEEVDVLLQRCEGGVDAALLYAKNMAKYMKDLISYLEKRTTLEMEFAKGLQKIAHNCRQSVMQEPHMPLLSIYSLALEQDLEFGHSMVQAVGTLQTQTFMQPLTLRRLEHEKRRKEIKEAWHRAQRKLQEAESNLRKAKQGYVQRCEDHDKARFLVAKAEEEQAGSAPGAGSTATKTLDKRRRLEEEAKNKAEEAMATYRTCVADAKTQKQELEDTKVTALRQIQEVIRQSDQTIKSATISYYQMMHMQTAPLPVHFQMLCESSKLYDPGQQYASHVRQLQRDQEPDVHYDFEPHVSANAWSPVMRARKSSFNVSDVARPEAAGSPPEEGGCTEGTPAKDHRAGRGHQVHKSWPLSISDSDSGLDPGPGAGDFKKFERTSSSGTMSSTEELVDPDGGAGASAFEQADLNGMTPELPVAVPSGPFRHEGLSKAARTHRLRKLRTPAKCRECNSYVYFQGAECEECCLACHKKCLETLAIQCGHKKLQGRLQLFGQDFSHAARSAPDGVPFIVKKCVCEIERRALRTKGIYRVNGVKTRVEKLCQAFENGKELVELSQASPHDISNVLKLYLRQLPEPLISFRLYHELVGLAKDSLKAEAEAKAASRGRQDGSESEAVAVALAGRLRELLRDLPPENRASLQYLLRHLRRIVEVEQDNKMTPGNLGIVFGPTLLRPRPTEATVSLSSLVDYPHQARVIETLIVHYGLVFEEEPEETPGGQDESSNQRAEVVVQVPYLEAGEAVVYPLQEAAADGCRESRVVSNDSDSDLEEASELLSSSEASALGHLSFLEQQQSEASLEVASGSHSGSEEQLEATAREDGDGDEDGPAQQLSGFNTNQSNNVLQAPLPPMRLRGGRMTLGSCRERQPEFV
